Results on 57 compounds are retold here after the supplement of paper PMC7752906.

Counter-ions that a name gives are not always drawn. This is one part of the list. Repeats in this data set agree poorly, so a single value says little.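 About 40 Schistosoma mansoni schistosomula per well were imaged over time in bright field and compared with 0.1% DMSO wells. A drug counts as a hit if its Mahalanobis distance reaches 2.47 or more, three standard deviations above the DMSO control mean. Degeneracy is the fraction of worms scored opaque.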

The test system of this assay is Schistosoma mansoni schistosomula. In words: Mahalanobis distance of static-rate-frequency phenotype descriptors from DMSO controls (dimensionless); higher = stronger phenotypic change versus DMSO. The note with it: 10 µM; 72 h.
With `CNC(C)(C)Cc1ccccc1` [Mephentermine Sulfate], the Mahalanobis distance is inactive: 2.03.

Turning to `NCCCNCCSP(=O)(O)O` [Amifostine], the Mahalanobis distance was inactive: 1.51.

In the case of `O=c1[nH]c2ccccc2n1C1CCN(CCCC(c2ccc(F)cc2)c2ccc(F)cc2)CC1` [pimozide], the Mahalanobis distance was inactive: 2.25.

As for `CN(C)C(=O)Oc1ccc[n+](C)c1` [Pyridostigmine Bromide], the Mahalanobis distance was inactive: 2.08.

With `C#CCN(C)[C@H](C)Cc1ccccc1` [Selegiline], the Mahalanobis distance was inactive: 1.9.

As for `CCCC(C)(COC(N)=O)COC(=O)NC(C)C` (configuration not stated) [Carisoprodol], the Mahalanobis distance was inactive: 1.47.

Regarding `COC(C)(C)CCC[C@H](C)C/C=C/C(C)=C/C(=O)OC(C)C` [Methoprene (s)], the Mahalanobis distance is inactive: 2.33.

In the case of `CC(O)CN1CCN(CC(=O)[O-])CCN(CC(=O)[O-])CCN(CC(=O)[O-])CC1.[Gd+3]` (configuration not stated) [Gadoteridol], the Mahalanobis distance was inactive: 1.1.

Turning to `N[C@@H]1C[C@H]1c1ccccc1.N[C@H]1C[C@@H]1c1ccccc1` [Tranylcypromine], the Mahalanobis distance is inactive: 1.62.

`C#CC(C)(O)CC` (configuration not stated) [Meparfylon]: the Mahalanobis distance is inactive: 1.29.

`C[C@@H]1CN([C@H]2CC[C@](C#N)(c3ccc(F)cc3)CC2)CC[C@]1(C(=O)O)c1ccccc1` [Levocabastine hcl]: the Mahalanobis distance was inactive: 1.37.

With `CCC1(CC)C(=O)NC(=O)NC1=O` [Barbital], the Mahalanobis distance is inactive: 1.3.

Regarding `CCC(=O)O[C@H]1CC[C@H]2[C@@H]3CCC4=CC(=O)CC[C@]4(C)[C@H]3CC[C@]12C` [Testosterone Propionate], the Mahalanobis distance was active: 2.49.

`COc1ccc(OC)c(C(O)C(C)N)c1` (configuration not stated) [Methoxamine]: the Mahalanobis distance was inactive: 2.02.

Regarding `CCOP(=S)(OCC)Oc1nc(Cl)c(Cl)cc1Cl` [Chlorpyrifos], the Mahalanobis distance was active: 2.65.

Consider `CNC(=O)Oc1ccccc1OC(C)C` [Propoxur], for which the Mahalanobis distance was inactive: 2.18.

Regarding `CC(=O)NC1CCSC1=O` (configuration not stated) [Citiolone], the Mahalanobis distance was inactive: 1.42.

Regarding `c1ccc2c(c1)sc1ccccc12` [Dibenzothiophene], the Mahalanobis distance is inactive: 1.42.

Consider `CCOP(=S)(OCC)Oc1ccc2c(C)c(Cl)c(=O)oc2c1` [Coumophos], for which the Mahalanobis distance was inactive: 1.96.

As to `CCC(=O)O[C@](Cc1ccccc1)(c1ccccc1)[C@H](C)CN(C)C` [Propoxyphene], the Mahalanobis distance is inactive: 1.74.

`C=C1C[C@@H]2[C@H](CC[C@]3(C)C(=O)CC[C@@H]23)[C@@]2(C)C=CC(=O)C=C12` [Exemestane]: the Mahalanobis distance was active: 2.94.

On to `CCOc1cc(C=O)ccc1O` [Ethyl Vanillin], for which the Mahalanobis distance was inactive: 1.21.

Regarding `C[C@]12C/C(=C/O)C(=O)C[C@@H]1CC[C@@H]1[C@@H]2CC[C@@]2(C)[C@H]1CC[C@]2(C)O` [Oxymetholone], the Mahalanobis distance is active: 2.92.

In the case of `CC(C)c1cccc(C(C)C)c1O` [Propofol], the Mahalanobis distance was active: 3.08.

As for `CN1C[C@H](CNC(=O)OCc2ccccc2)C[C@@H]2c3cccc4c3c(cn4C)C[C@H]21` [Metergoline], the Mahalanobis distance was inactive: 1.92.

With `Oc1ccc2c3c1O[C@H]1[C@@H](O)CC[C@@]4(O)[C@@H](C2)N(CC2CCC2)CC[C@]314` [Nalbuphine], the Mahalanobis distance was inactive: 1.88.

As for `CC1C=CC=CCCC=CC=CC=CC=CC(OC2OC(C)C(O)C(N)C2O)CC2OC(O)(CC(O)C(O)CCC(O)CC(O)CC(O)CC(=O)OC(C)C(C)C1O)CC(O)C2C(=O)O` (configuration not stated) [Nystatin], the Mahalanobis distance is inactive: 1.51.

As for `C[C@]12CC[C@H](O)CC1=CC[C@@H]1[C@@H]2CC[C@]2(C)C(=O)CC[C@@H]12` [Prasterone], the Mahalanobis distance was active: 2.85.

In the case of `COc1cc2c(c(OC)c1OC)-c1ccc(OC)c(=O)cc1[C@@H](NC(C)=O)CC2` [colchicine], the Mahalanobis distance was active: 3.04.

Turning to `CC[C@@H](CO)NC(=O)[C@@H]1C=C2c3cccc4c3c(cn4C)C[C@H]2N(C)C1` [Methysergide Maleate], the Mahalanobis distance is active: 3.48.

Turning to `c1ccc2c(c1)OCC(C1=NCCN1)O2` (configuration not stated) [Idazoxan Hydrochloride], the Mahalanobis distance is inactive: 1.97.

On to `CCCCOC(=O)c1ccccc1C(=O)OCCCC` [Dibutyl Phthalate], for which the Mahalanobis distance is inactive: 1.89.

On to `O=C(O)c1nn(Cc2ccc(Cl)cc2Cl)c2ccccc12` [Lonidamine], for which the Mahalanobis distance is inactive: 1.62.

For `COc1ccc2c(c1OC)C(=O)O[C@@H]2[C@H]1c2cc3c(cc2CCN1C)OCO3` [Hydrastine (1r, 9s)], the Mahalanobis distance is inactive: 2.04.

Turning to `Cc1nnc2n1-c1ccc(Cl)cc1C(c1ccccc1)=NC2` [Alprazolam], the Mahalanobis distance was inactive: 1.81.

Consider `NCC1(CC(=O)O)CCCCC1` [Gabapentin], for which the Mahalanobis distance is inactive: 1.44.

Consider `O=[N+]([O-])O[C@H]1CO[C@H]2[C@@H]1OC[C@H]2O[N+](=O)[O-]` [Isosorbide Dinitrate], for which the Mahalanobis distance is inactive: 1.9.

Consider `CC(N)C(O)c1ccccc1` (configuration not stated) [Phenylpropanolamine], for which the Mahalanobis distance was active: 3.58.

Regarding `CCOC(=O)c1cncn1[C@H](C)c1ccccc1` [Etomidate], the Mahalanobis distance is active: 2.83.

With `O=[N+]([O-])C(Br)(CO)CO` [Bronopol], the Mahalanobis distance was inactive: 1.99.

With `CN[C@@H](C)[C@@H](O)c1ccccc1` [Pseudoephedrine], the Mahalanobis distance was inactive: 2.38.

For the compound `CN1[C@@H]2C[C@@H](OC(=O)[C@H](CO)c3ccccc3)C[C@H]1[C@@H]1O[C@@H]12` [Scopolamine], the Mahalanobis distance was inactive: 1.66.

Consider `CN1C[C@H](C(=O)N[C@]2(C)O[C@@]3(O)[C@@H]4CCCN4C(=O)[C@H](Cc4ccccc4)N3C2=O)C=C2c3cccc4[nH]cc(c34)C[C@H]21` [Ergotamine], for which the Mahalanobis distance is active: 2.49.

For the compound `O=C1CC[C@@]2(O)[C@H]3Cc4ccc(O)c5c4[C@@]2(CCN3CC2CC2)[C@H]1O5` [Naltrexone Hydrochloride], the Mahalanobis distance was inactive: 1.93.

For the compound `O=C1Nc2ccc(Cl)cc2C(c2ccccc2Cl)=NC1O` (configuration not stated) [Lorazepam], the Mahalanobis distance was active: 3.51.

For `NCc1cccnc1` [Picolamine], the Mahalanobis distance is inactive: 1.87.

As to `CC(N)Cc1ccc(O)cc1` (configuration not stated) [Hydroxyamphetamine Hydrobromide], the Mahalanobis distance is active: 2.99.

Turning to `O=c1c2ccccc2[se]n1-c1ccccc1` [Ebselen], the Mahalanobis distance is active: 2.78.

In the case of `CC(=O)O[C@H]1C[C@@H]2CC[C@@H]3[C@H](CC[C@@]4(C)[C@H]3C[C@H]([N+]3(C)CCCCC3)[C@@H]4OC(C)=O)[C@@]2(C)C[C@@H]1[N+]1(C)CCCCC1` [Pancuronium Bromide], the Mahalanobis distance was inactive: 1.78.

For `O=c1n(Cl)c(=O)n(Cl)c(=O)n1Cl` [Symclosene], the Mahalanobis distance is inactive: 1.82.

`C=CCN1CC[C@]23c4c5ccc(O)c4O[C@H]2C(=O)CC[C@@]3(O)[C@H]1C5` [Naloxone Hydrochloride]: the Mahalanobis distance was inactive: 1.71.

Turning to `C=CCN1CC[C@]23c4c5ccc(O)c4O[C@H]2C(=O)CC[C@@]3(O)[C@H]1C5` [Naloxone], the Mahalanobis distance was inactive: 1.61.

For the compound `Cc1cccc(C)c1NC(=O)CN1CCCC1=O` [Nefiracetam], the Mahalanobis distance was inactive: 1.2.

In the case of `CC[C@@H](C(=O)[C@@H](C)[C@@H](O)[C@H](C)[C@@H]1O[C@@H]([C@@H](CC)C(=O)O)CC[C@@H]1C)[C@H]1O[C@]2(C=C[C@@H](O)[C@]3(CC[C@@](C)([C@H]4CC[C@](O)(CC)[C@H](C)O4)O3)O2)[C@H](C)C[C@@H]1C` [Salinomycin, Sodium], the Mahalanobis distance is active: 2.51.

Regarding `CCC1(c2ccccc2)C(=O)NC(=O)NC1=O` [Phenobarbital], the Mahalanobis distance was inactive: 1.38.

With `C[C@]12CCC(=O)C=C1C=C[C@@H]1[C@@H]2CC[C@@]2(C)[C@H]1CC[C@@]2(O)CCC(=O)O` [Canrenoic Acid, Potassium Salt], the Mahalanobis distance is inactive: 1.5.

For the compound `S=C=NCc1ccccc1` [Benzyl Isothiocyanate], the Mahalanobis distance was inactive: 1.91.
